Experimental findings from the supplement of paper PMC10849652 are described below.

Sequences of proteins named here, by UniProt entry; tags and fusion partners are left off. A change or cut given only in a name is not applied to a line headed by its entry.
UniProt Q9BWQ6: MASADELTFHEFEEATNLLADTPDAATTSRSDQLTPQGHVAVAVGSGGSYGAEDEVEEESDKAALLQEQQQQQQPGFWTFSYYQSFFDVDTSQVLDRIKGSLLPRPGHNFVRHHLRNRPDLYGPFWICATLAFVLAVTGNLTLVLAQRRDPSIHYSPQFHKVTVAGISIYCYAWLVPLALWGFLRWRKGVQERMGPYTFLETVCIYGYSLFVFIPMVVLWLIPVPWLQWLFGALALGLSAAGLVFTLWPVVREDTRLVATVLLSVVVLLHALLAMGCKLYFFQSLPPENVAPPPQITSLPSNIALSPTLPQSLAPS
UniProt O60315: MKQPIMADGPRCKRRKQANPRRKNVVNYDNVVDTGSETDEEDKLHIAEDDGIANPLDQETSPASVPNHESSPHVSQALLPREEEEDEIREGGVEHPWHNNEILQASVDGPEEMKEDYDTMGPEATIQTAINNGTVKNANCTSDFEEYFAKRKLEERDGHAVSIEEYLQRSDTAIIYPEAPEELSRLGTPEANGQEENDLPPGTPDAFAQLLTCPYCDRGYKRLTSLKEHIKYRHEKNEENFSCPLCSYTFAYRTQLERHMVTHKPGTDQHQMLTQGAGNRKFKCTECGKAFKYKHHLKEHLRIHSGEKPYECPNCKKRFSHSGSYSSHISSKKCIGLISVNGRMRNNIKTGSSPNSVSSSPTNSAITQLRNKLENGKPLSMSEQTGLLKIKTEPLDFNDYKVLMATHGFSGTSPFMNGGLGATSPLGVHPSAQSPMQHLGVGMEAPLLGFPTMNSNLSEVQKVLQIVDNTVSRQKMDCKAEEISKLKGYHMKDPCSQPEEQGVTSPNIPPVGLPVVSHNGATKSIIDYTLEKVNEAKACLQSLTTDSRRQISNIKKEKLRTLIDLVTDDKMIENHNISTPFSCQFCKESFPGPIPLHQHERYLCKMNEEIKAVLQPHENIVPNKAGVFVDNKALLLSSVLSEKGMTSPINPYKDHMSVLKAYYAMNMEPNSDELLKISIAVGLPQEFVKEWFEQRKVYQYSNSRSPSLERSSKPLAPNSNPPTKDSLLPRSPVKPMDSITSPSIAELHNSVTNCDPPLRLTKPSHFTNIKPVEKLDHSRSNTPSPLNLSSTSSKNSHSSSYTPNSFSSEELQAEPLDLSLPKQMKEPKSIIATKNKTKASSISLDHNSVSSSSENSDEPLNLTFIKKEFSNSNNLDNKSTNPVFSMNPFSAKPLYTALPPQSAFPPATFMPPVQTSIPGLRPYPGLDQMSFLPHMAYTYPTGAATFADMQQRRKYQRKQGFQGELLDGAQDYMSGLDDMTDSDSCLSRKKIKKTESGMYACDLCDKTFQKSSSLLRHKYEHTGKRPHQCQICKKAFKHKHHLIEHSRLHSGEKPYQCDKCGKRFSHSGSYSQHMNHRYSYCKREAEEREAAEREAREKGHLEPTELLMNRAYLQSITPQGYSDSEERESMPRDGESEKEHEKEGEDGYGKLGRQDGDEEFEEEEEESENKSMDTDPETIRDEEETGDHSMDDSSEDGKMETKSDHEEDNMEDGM
UniProt A4UGR9: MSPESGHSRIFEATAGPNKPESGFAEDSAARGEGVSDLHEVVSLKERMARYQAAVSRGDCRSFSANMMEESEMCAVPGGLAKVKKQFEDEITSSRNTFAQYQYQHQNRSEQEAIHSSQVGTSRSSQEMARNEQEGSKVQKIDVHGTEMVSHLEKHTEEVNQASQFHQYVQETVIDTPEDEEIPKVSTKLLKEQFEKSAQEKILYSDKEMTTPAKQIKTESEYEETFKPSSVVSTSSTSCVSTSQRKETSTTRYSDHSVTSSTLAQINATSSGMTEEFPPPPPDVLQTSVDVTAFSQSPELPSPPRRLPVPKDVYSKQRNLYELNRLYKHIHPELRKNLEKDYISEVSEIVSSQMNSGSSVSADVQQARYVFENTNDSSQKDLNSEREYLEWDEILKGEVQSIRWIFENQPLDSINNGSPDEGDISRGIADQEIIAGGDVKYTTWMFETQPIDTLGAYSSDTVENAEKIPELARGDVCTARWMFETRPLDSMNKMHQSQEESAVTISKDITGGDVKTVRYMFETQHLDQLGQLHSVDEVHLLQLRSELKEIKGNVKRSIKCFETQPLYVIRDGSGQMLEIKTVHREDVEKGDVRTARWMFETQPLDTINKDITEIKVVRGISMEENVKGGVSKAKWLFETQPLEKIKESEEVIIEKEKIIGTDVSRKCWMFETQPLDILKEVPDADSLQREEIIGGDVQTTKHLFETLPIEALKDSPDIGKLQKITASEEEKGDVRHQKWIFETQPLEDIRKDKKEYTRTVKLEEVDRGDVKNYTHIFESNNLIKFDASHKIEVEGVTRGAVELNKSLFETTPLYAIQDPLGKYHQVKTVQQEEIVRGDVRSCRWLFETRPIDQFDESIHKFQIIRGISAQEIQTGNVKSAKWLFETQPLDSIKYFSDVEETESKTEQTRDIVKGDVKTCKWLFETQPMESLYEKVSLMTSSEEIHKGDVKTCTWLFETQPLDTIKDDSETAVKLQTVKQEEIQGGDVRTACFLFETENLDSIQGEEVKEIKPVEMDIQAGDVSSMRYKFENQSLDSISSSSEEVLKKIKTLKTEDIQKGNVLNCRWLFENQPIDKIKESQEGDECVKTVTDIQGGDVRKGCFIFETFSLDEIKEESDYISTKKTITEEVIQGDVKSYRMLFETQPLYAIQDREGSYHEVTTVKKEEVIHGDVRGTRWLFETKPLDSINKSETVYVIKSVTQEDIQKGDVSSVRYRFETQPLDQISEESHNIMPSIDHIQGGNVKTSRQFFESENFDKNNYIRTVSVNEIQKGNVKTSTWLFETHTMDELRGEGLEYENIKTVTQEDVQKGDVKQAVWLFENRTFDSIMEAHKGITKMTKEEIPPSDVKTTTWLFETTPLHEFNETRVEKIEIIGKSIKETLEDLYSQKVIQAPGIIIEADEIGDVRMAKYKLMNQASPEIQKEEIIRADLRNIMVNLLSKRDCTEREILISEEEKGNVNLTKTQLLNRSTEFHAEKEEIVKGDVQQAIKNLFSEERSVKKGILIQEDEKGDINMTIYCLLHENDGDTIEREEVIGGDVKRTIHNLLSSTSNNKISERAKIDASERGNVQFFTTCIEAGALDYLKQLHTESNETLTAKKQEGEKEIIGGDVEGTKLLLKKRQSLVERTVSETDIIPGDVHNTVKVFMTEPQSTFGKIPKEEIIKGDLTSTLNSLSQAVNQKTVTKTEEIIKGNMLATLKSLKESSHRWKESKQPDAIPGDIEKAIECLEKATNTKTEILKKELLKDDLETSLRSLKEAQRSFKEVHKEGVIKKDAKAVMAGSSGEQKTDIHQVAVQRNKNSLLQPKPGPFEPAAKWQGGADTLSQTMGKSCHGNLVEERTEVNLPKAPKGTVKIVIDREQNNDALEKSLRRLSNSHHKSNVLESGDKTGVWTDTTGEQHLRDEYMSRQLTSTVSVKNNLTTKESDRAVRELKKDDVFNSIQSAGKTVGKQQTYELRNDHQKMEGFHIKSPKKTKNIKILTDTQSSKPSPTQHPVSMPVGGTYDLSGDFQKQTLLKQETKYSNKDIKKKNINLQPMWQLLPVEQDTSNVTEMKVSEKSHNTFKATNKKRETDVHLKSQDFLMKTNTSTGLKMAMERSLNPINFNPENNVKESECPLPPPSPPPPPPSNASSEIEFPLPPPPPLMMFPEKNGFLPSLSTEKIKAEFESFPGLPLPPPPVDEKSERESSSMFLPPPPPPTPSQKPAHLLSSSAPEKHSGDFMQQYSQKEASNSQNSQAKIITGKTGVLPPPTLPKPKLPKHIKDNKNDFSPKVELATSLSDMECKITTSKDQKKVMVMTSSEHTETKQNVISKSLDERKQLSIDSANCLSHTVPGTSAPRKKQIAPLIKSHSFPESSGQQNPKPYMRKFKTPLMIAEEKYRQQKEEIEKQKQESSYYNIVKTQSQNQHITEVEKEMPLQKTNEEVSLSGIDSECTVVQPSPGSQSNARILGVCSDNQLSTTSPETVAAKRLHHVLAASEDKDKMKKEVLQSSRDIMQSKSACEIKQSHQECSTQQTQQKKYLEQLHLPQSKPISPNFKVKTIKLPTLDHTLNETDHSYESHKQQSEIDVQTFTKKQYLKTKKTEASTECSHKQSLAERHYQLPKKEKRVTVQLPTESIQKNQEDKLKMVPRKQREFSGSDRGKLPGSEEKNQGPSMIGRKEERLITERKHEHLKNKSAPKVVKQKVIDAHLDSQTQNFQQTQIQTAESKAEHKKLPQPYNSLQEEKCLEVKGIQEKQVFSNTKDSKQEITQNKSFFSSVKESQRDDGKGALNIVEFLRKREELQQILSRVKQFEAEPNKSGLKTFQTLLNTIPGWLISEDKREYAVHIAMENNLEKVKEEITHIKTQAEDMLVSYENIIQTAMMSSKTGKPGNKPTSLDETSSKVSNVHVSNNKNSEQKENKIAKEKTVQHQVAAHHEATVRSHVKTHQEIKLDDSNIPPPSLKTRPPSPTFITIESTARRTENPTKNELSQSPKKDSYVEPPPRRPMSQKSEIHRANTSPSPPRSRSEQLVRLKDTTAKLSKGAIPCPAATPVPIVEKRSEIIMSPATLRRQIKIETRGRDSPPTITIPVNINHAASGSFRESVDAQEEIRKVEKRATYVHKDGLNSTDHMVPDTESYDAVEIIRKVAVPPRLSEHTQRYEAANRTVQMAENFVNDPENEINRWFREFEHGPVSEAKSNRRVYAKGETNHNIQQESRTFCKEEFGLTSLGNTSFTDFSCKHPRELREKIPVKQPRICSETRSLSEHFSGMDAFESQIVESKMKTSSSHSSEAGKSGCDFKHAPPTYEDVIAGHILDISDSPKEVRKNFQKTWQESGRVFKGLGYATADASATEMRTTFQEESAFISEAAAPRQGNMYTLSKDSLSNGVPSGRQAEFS
UniProt Q8TCF1: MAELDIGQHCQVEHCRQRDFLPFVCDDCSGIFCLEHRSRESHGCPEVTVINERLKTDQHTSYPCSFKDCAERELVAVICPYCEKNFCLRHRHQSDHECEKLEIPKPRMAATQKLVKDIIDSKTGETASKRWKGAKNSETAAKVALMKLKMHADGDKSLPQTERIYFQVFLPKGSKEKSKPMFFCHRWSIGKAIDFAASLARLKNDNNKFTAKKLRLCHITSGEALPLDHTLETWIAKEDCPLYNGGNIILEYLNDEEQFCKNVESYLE
UniProt O96006: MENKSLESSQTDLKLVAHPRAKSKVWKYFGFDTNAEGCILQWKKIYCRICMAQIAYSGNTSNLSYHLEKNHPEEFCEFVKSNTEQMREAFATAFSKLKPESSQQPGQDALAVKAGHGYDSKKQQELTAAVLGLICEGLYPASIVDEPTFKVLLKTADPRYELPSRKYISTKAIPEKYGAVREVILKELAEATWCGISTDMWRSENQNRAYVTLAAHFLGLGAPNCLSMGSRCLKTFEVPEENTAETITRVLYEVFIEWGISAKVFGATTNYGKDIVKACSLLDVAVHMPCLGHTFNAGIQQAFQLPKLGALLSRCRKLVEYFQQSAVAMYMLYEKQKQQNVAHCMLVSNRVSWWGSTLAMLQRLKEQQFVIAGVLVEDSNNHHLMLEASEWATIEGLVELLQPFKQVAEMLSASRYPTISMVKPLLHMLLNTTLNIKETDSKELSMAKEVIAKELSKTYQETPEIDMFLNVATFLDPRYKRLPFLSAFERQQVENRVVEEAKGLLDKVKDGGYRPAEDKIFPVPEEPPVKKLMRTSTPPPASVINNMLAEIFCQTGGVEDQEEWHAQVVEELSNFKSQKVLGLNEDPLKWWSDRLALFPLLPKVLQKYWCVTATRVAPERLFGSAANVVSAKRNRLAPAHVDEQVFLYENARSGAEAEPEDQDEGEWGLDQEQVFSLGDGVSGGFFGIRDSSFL
UniProt Q96DA0: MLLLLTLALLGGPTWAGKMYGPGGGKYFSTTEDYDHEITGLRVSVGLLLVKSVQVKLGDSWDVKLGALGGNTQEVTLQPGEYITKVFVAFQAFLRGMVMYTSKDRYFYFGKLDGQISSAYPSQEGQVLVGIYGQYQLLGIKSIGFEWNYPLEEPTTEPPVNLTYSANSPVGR
UniProt Q969J2: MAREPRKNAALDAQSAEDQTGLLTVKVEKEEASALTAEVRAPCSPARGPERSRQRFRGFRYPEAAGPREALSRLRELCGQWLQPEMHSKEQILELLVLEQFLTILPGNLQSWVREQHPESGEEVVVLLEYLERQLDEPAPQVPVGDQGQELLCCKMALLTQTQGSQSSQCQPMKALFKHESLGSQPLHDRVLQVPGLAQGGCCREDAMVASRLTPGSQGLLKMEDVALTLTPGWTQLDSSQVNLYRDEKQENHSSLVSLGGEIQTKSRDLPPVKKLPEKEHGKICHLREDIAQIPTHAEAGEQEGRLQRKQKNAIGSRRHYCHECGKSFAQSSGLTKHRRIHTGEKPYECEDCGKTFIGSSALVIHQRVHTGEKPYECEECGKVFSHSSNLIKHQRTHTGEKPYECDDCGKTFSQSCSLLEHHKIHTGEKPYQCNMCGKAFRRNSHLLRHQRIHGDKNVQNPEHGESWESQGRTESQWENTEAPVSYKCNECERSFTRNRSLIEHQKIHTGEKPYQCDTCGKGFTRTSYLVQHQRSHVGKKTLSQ

The other results are listed elsewhere or left out.

Compound in one assay: C1=CC=C(C=C1)[C@H](COC2=CC3=C(C=C2)NC(=O)N3)NC(=O)C4=CC=CN(C4=O)CC5=CC(=C(C=C5)F)F
The experiment in a line: log2 fold change, soluble protein after heating vs DMSO (PISA); higher = thermal stabilisation; K562 cells, 10 uM, 30 min; active = over 0.2 and 3.5 SD of the protein, either way, in both replicates (recomputed). In outline:
(§1)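 Values are thermal stability changes relative to control samples and are taken from duplicates. They are stated as log2 fold changes. Before quantification by TMTpro 16plex LC-MS/MS with equalised channel sums, K562 cells at 2×10^6 cells/mL were treated with 10 μM compound for 30 min, heated in aliquots for 3 min across 48°C-58°C, pooled, extracted in PBS with 0.5% NP-40 at 4°C, and centrifuged at 21,000xg for 90 min to give the soluble supernatant.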
On to YIPF2 (UniProt Q9BWQ6), for which the log2 fold change is inactive: 0.021.

In the case of ZEB2 (UniProt O60315), the log2 fold change is inactive: -0.125.

As for ZNF106 (UniProt Q9H2Y7), the log2 fold change is inactive: -0.098.

As to ZBTB14 (UniProt O43829), the log2 fold change is inactive: 0.28.

Take XIRP2 isoform 8 (UniProt A4UGR9): the log2 fold change is inactive: -0.03.

With ZDHHC4 (UniProt Q9NPG8), the log2 fold change is inactive: -0.041.

Consider ZBTB10 (UniProt Q96DT7), for which the log2 fold change is inactive: 0.017.

Regarding ZBTB17 isoform 2 (UniProt Q13105), the log2 fold change is inactive: -0.08.

Turning to ZDHHC18 (UniProt Q9NUE0), the log2 fold change was inactive: -0.074.

As to ZFAND1 (UniProt Q8TCF1), the log2 fold change is inactive: -0.244.

XP32 (UniProt Q5T750): the log2 fold change is inactive: 0.28.

Turning to ZDHHC8 isoform 3 (UniProt Q9ULC8), the log2 fold change is inactive: 0.105.

Take ZBED1 (UniProt O96006): the log2 fold change is inactive: 0.036.

Take ZG16B (UniProt Q96DA0): the log2 fold change is inactive: 0.206.

For ZMYND8 isoform 19 (UniProt Q9ULU4), the log2 fold change is inactive: -0.048.

Compound in a further assay: CC1=C(SC2=C1C(=N[C@H](C3=NN=C(N32)C)CC(=O)N)C4=CC=C(C=C4)Cl)C
The assay is described as above. An outline of the steps: as §1
Consider YIPF2 (UniProt Q9BWQ6), for which the log2 fold change is inactive: -0.24.

For the target ZDHHC13 (UniProt Q8IUH4), the log2 fold change is inactive: 0.079.

XRCC2 (UniProt O43543): the log2 fold change was inactive: 0.211.

As for ZC3H7B (UniProt Q9UGR2), the log2 fold change was inactive: -0.035.

As to ZBTB14 (UniProt O43829), the log2 fold change is inactive: -0.187.

For XIRP2 isoform 8 (UniProt A4UGR9), the log2 fold change was inactive: -0.098.

Consider ZKSCAN4 (UniProt Q969J2), for which the log2 fold change was inactive: -0.068.

For the target ZBTB24 (UniProt O43167), the log2 fold change is inactive: -0.302.

As for ZKSCAN3 (UniProt Q9BRR0), the log2 fold change is inactive: 0.075.

ZBTB10 (UniProt Q96DT7): the log2 fold change was inactive: -0.048.

As to XYLT2 (UniProt Q9H1B5), the log2 fold change was inactive: 0.435.

On to ZDHHC7 isoform 2 (UniProt Q9NXF8), for which the log2 fold change was inactive: 0.088.

Turning to ZNF22 (UniProt P17026), the log2 fold change was inactive: -0.423.

Turning to ZDHHC18 (UniProt Q9NUE0), the log2 fold change is inactive: 0.097.

On to XRCC1 (UniProt P18887), for which the log2 fold change is inactive: 0.091.

As to XP32 (UniProt Q5T750), the log2 fold change is inactive: -0.058.

ZBED1 (UniProt O96006): the log2 fold change was inactive: 0.176.

In the case of ZFYVE26 (UniProt Q68DK2), the log2 fold change is inactive: 0.052.

For the target ZFPM2 (UniProt Q8WW38), the log2 fold change was inactive: 0.224.

As for ZMYND8 isoform 19 (UniProt Q9ULU4), the log2 fold change was inactive: -0.003.

Turning to XPC (UniProt Q01831), the log2 fold change was inactive: -0.44.

Compound in a further assay: CC1=C2C(=CC=C1)N=C(N(C2=O)C3=CC=CC=C3C)CN4C=NC5=C(N=CN=C54)N
Described as above. An outline of the steps: as §1
As to ZKSCAN8 (UniProt Q15776), the log2 fold change is inactive: 0.111.

As for XPA (UniProt P23025), the log2 fold change was inactive: 0.071.

On to ZEB2 (UniProt O60315), for which the log2 fold change was inactive: 0.137.

For ZNF106 (UniProt Q9H2Y7), the log2 fold change is inactive: 0.122.

Consider ZKSCAN4 (UniProt Q969J2), for which the log2 fold change is inactive: -0.122.

For the target ZDHHC4 (UniProt Q9NPG8), the log2 fold change was inactive: 0.025.

On to ZBTB7B isoform 2 (UniProt O15156), for which the log2 fold change was inactive: -0.001.

On to ZDHHC7 isoform 2 (UniProt Q9NXF8), for which the log2 fold change was inactive: 0.131.

For the target ZFX isoform 3 (UniProt P17010), the log2 fold change was inactive: -0.545.

ZDHHC12 isoform 3 (UniProt Q96GR4): the log2 fold change is inactive: -0.035.

With ZFAND1 (UniProt Q8TCF1), the log2 fold change was inactive: -0.085.

As to ZFYVE21 isoform 2 (UniProt Q9BQ24), the log2 fold change is inactive: 0.302.

Consider ZDHHC16 (UniProt Q969W1), for which the log2 fold change is inactive: 0.029.

As for ZG16B (UniProt Q96DA0), the log2 fold change is inactive: 0.041.

As for ZCCHC17 (UniProt Q9NP64), the log2 fold change was inactive: -0.124.

Consider XPC (UniProt Q01831), for which the log2 fold change is inactive: -0.082.

Compound in the next assay: Cc1sc2c(c1C)C(c1ccc(Cl)cc1)=N[C@@H](CC(=O)OC(C)(C)C)c1nnc(C)n1-2
Described as above. In outline: as §1
YIPF2 (UniProt Q9BWQ6): the log2 fold change was inactive: -0.222.

As to ZKSCAN8 (UniProt Q15776), the log2 fold change is inactive: 0.097.

As to XPA (UniProt P23025), the log2 fold change was inactive: 0.115.

For ZEB2 (UniProt O60315), the log2 fold change is inactive: 0.368.

For ZC3H7B (UniProt Q9UGR2), the log2 fold change was inactive: 0.429.

ZBTB14 (UniProt O43829): the log2 fold change is inactive: -0.123.

As to XIRP2 isoform 8 (UniProt A4UGR9), the log2 fold change was inactive: 0.032.

Take ZKSCAN4 (UniProt Q969J2): the log2 fold change was inactive: 0.176.

As to ZBTB24 (UniProt O43167), the log2 fold change was inactive: 0.065.

With ZFHX4 isoform 5 (UniProt Q86UP3), the log2 fold change was inactive: 0.018.

Take ZBTB10 (UniProt Q96DT7): the log2 fold change was inactive: 0.361.

Turning to ZBTB17 isoform 2 (UniProt Q13105), the log2 fold change is inactive: -0.019.

As to ZBTB7B isoform 2 (UniProt O15156), the log2 fold change was inactive: 0.105.

With ZDHHC7 isoform 2 (UniProt Q9NXF8), the log2 fold change was inactive: 0.135.

As for ZFX isoform 3 (UniProt P17010), the log2 fold change was inactive: 0.175.

As for ZNF22 (UniProt P17026), the log2 fold change is inactive: -0.168.

Turning to ZDHHC12 isoform 3 (UniProt Q96GR4), the log2 fold change was inactive: 0.066.

On to ZDHHC18 (UniProt Q9NUE0), for which the log2 fold change was inactive: -0.209.

As to ZFAND1 (UniProt Q8TCF1), the log2 fold change is inactive: -0.171.

XRCC1 (UniProt P18887): the log2 fold change is inactive: 0.07.

Turning to ZDHHC8 isoform 3 (UniProt Q9ULC8), the log2 fold change was inactive: 0.

As to ZBED1 (UniProt O96006), the log2 fold change was inactive: 0.016.

On to ZFYVE21 isoform 2 (UniProt Q9BQ24), for which the log2 fold change is inactive: 0.029.

Consider ZFPM2 (UniProt Q8WW38), for which the log2 fold change is inactive: -0.099.
